Results as given in PubChem BioAssay AID445 (National Center for Advancing Translational Sciences (NCATS), 2006).
The list shows a part of the results. These are further read-outs of the screen, such as a control signal, another cell line or another target. No call is given for them. Compounds called inactive in the main read-out are mostly missing here. Words in brackets tell the shape of the fitted curve; partial curves, single points and poor fits give uncertain potencies.

Assay: IkB Signaling
Details: ABC-DLBCL IkBa-CBG/CBR dual luciferase ratio (green luciferase fused to IkBa over red control in OCI-Ly3 lymphoma cells), 4 h
Outline: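 Luminescence ratio of IκBα-fused green versus native red beetle luciferase in OCI-Ly3 cells, 4 h post-doxycycline with compound; red signal alone, scaled from basal (0%) to zero light (-100%), flagged nonspecific or cytotoxic effects.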

[1] = measured here: control luc red channel unless noted
[2] = measured here: IkB-luc green channel
[3] = measured here: control luc red channel

Cc1ccc(Cn2c(NC(=O)c3ccco3)nc3ccccc32)cc1
AC50 [1]: 5.01 µM [rising, single point] [measured here: IkB-luc green channel]

CC(C)CCN1C(=O)N(c2ccccc2)C(=O)C1CC(=O)Nc1ccc(Cl)cc1 (stereo not drawn)
AC50 [1]: 12.6 µM [falling, partial curve]

O=C(NC1CCCC1)c1ccc2nc(-c3ccco3)c(-c3ccco3)nc2c1
AC50 [1]: 15.8 µM [falling, partial curve]

Cn1c(CSc2nc3ccc(Br)cc3[nH]2)nc2ccccc21
AC50 [1]: 6.31 µM [falling, partial curve]

COc1ccc(CNC(=O)c2ccc(CNS(=O)(=O)c3ccc(F)cc3)cc2)cc1
AC50 [1]: 25.1 µM [rising, single point]

COC(=O)c1sccc1S(=O)(=O)N(CC(=O)NCc1ccc(F)cc1)c1ccc(Cl)cc1
AC50 [1]: 25.1 µM [falling, partial curve]

Cc1oc(-c2cccc(Cl)c2)nc1Cn1c(SCc2ccccc2F)nc2ccncc21
AC50 [1]: 10 µM [falling, partial curve]

Cc1ccc(NC(=O)C2CCCN2S(=O)(=O)c2ccc3c(c2)CCCC(=O)N3)cc1Cl (stereo not drawn)
AC50 [1]: 25.1 µM [falling, partial curve, poor fit]

O=C(CSc1ccc2nc(-c3ccccc3)cn2n1)Nc1cccc(F)c1
AC50 [1]: 39.8 µM [falling, single point]

CS(=O)(=O)c1nc(-c2ccccc2)cc(C(F)(F)F)n1
AC50 [1]: 6.31 µM [falling, partial curve]

COc1ccc(Cn2nnc3c(=O)[nH]c(C4CCN(C(=O)c5ccc(C)cc5)CC4)nc32)cc1OC
AC50 [1]: 2.51 µM [rising, partial curve]

Cc1ccc(-c2cc(C(F)F)n3ncc(C(=O)N4CCN(c5ccccn5)CC4)c3n2)cc1
AC50 [1]: 12.6 µM [falling, partial curve]

O=[N+]([O-])c1ccc(Nc2nc3ccccc3s2)cc1
AC50 [1]: 3.98 µM [falling, single point]

CCSc1nn(CC(=O)Nc2ccc(C(=O)OC)cc2)c(N)c1S(=O)(=O)c1ccc(C)cc1
AC50 [1]: 25.1 µM [falling, single point]

COC(=O)c1cc2occc2n1CC(=O)Nc1ccc(C(C)C)cc1
AC50 [1]: 1.26 µM [rising, full curve, poor fit]

COc1cccc(-n2nnc(-c3nc(-c4ccccc4F)no3)c2C)c1
AC50 [1]: 0.501 µM [rising, full curve, poor fit]

COC(=O)c1cc(NC(=O)c2ccc3c(c2)NC(=O)c2ccccc2S3)cc(C(=O)OC)c1
AC50 [2]: 15.8 µM [rising, partial curve]
AC50 [3]: 3.16 µM [rising, full curve]

CSc1cccc(NC(=O)Cn2ncn3c(cc4ccccc43)c2=O)c1
AC50 [1]: 25.1 µM [falling, partial curve]

Fc1ccccc1N1CCN(c2ncc3c(n2)CCN(Cc2cc(Br)cs2)C3)CC1
AC50 [1]: 12.6 µM [falling, partial curve, poor fit]

COc1ccc(NC(=O)CSc2nc(-c3ccco3)cc(C(F)(F)F)n2)cc1Cl
AC50 [1]: 20 µM [falling, partial curve]

CCCN(CCC)C(=O)Cn1c(=O)n(-c2ccc(Cl)cc2)c(=O)c2c3c(sc21)CCCC3
AC50 [1]: 25.1 µM [rising, single point]

Fc1ccc(-c2cn3cc(Cc4ccccc4)sc3n2)cc1
AC50 [1]: 0.2 µM [falling, full curve]

COc1cccc2cc(C(=O)NCC3CCCO3)c(=O)oc12 (stereo not drawn)
AC50 [1]: 6.31 µM [falling, partial curve]

CCCCS(=O)(=O)c1nc(-c2ccc(Br)cc2)cc(-c2ccccc2)c1C#N
AC50 [1]: 3.16 µM [rising, full curve] [measured here: IkB-luc green channel]

O=C(Nc1ccc(Cl)cc1C(=O)Nc1ccccn1)c1ccco1
AC50 [1]: 39.8 µM [falling, single point]

Cc1cccc(NC(=O)CCc2c(C)nc3c(c(C)nn3C(C)(C)C)c2C)c1C
AC50 [1]: 15.8 µM [falling, partial curve]

CC1CCc2c(sc3nnn(CC(=O)Nc4ccc(Cl)cc4)c(=O)c23)C1 (stereo not drawn)
AC50 [1]: 10 µM [falling, partial curve]

Cc1ccc(N2CCN(S(=O)(=O)c3ccc4[nH]c5c(c4c3)CCCCC5)CC2)c(C)c1
AC50 [1]: 7.94 µM [falling, full curve]

CCN(C(=O)c1cn(CC)c(=O)c2cc(OC)c(OC)cc12)c1ccc(C)c(C)c1
AC50 [1]: 2.51 µM [falling, full curve, poor fit]

O=C(CSc1ncccc1-c1nc2ccccc2[nH]1)NCc1ccco1
AC50 [2]: 25.1 µM [rising, partial curve]
AC50 [3]: 0.1 µM [falling, full curve]

Cc1ccc(-n2nc(C)c3cc(C(=O)O)sc32)cc1
AC50 [1]: 12.6 µM [falling, partial curve]

CCOc1ccc(CNS(=O)(=O)c2ccc(-c3coc(C)n3)cc2)cc1OC
AC50 [1]: 0.316 µM [rising, full curve]

COc1ccc(CCN2C(=O)c3[nH]nc(-c4ccccc4O)c3C2c2ccccc2)cc1OC (stereo not drawn)
AC50 [1]: 12.6 µM [falling, partial curve]

COc1ccccc1CNC(=O)c1cc2c(s1)-c1ccccc1OC2
AC50 [1]: 0.126 µM [falling, full curve]

CCC(=O)N1c2ccc(S(=O)(=O)CCC(=O)Nc3ccc(Br)c(C)c3)cc2CC1C (stereo not drawn)
AC50 [1]: 3.98 µM [falling, partial curve]

CCOCCCN(Cc1ccco1)C(=O)c1cc2c(=O)[nH]c3ccc(C)cc3c2s1
AC50 [1]: 31.6 µM [falling, single point]

COc1ccc(/C=C(\C#N)c2nc3ccccc3n2C)c(OC)c1
AC50 [1]: 20 µM [falling, single point]

COc1cccc(NC(=O)c2cnc(SCC(=O)N3CCOCC3)n(C)c2=O)c1
AC50 [1]: 25.1 µM [rising, partial curve] [measured here: IkB-luc green channel]

Cc1ccc(Cl)cc1N1CCN(C(=O)CN2C(=O)CSc3c2c(C)nn3-c2ccccc2)CC1
AC50 [1]: 25.1 µM [falling, partial curve]

COc1ccc2c(c1)CCc1c(C(=O)N3CCCC3)noc1-2
AC50 [1]: 12.6 µM [falling, partial curve, poor fit]

CCOc1ccc(N(CC)S(=O)(=O)N2CCCC(C(=O)NCCc3ccc(OC)cc3)C2)cc1 (stereo not drawn)
AC50 [1]: 20 µM [falling, single point]

Cc1ccc(C)c(N2CCN(C(=O)c3cc(S(=O)(=O)N4CCCCCC4)cn3C)CC2)c1
AC50 [1]: 25.1 µM [falling, partial curve]

COc1ccc(C2N(c3cc(Cl)ccc3OC)C(=O)C3CCCN32)cc1 (stereo not drawn)
AC50 [1]: 15.8 µM [falling, partial curve]

COc1ccc(NC(=O)c2cc3ccccc3o2)cc1
AC50 [1]: 15.8 µM [falling, partial curve]

O=C(/C=C\c1ccccc1)NC1CC(=O)N(c2ccccc2)C1 (stereo not drawn)
AC50 [1]: 3.16 µM [rising, single point]

Cc1cc(C)c2c(n1)sc1c(=O)n(-c3cc(Cl)ccc3C)nnc12
AC50 [1]: 20 µM [falling, partial curve, poor fit]

CCC1CCCCN1C(=O)Cn1c(=O)cc(C(F)(F)F)c2c(C)nn(C)c21 (stereo not drawn)
AC50 [1]: 7.94 µM [falling, single point]

Cc1ccc2cc(CN(Cc3ccc4c(c3)OCO4)Cc3nnnn3Cc3ccco3)c(=O)[nH]c2c1C
AC50 [1]: 25.1 µM [falling, partial curve]

O=C1c2[nH]nc(-c3ccccc3O)c2C(c2ccc(F)cc2)N1CCO (stereo not drawn)
AC50 [1]: 39.8 µM [falling, single point]

COc1ccc(OC)c(NC(=O)Cc2c(C(=O)O)n(C)c3ccc(C)cc23)c1
AC50 [1]: 31.6 µM [falling, partial curve]

COc1ccc2nc(-c3ccccc3)[nH]c2c1
AC50 [1]: 12.6 µM [falling, partial curve]

CCOC(=O)c1cc(-c2ccc(OC)cc2)n(CCC(=O)Nc2nc3ccc(OCC)cc3s2)c1C
AC50 [1]: 3.16 µM [rising, single point]

COc1ccc(-c2nc(SCC(=O)N3CCCCC3C)n[nH]2)cc1 (stereo not drawn)
AC50 [1]: 0.0794 µM [falling, full curve]

CCc1cccc(C)c1Nc1c(-c2cccc(O)c2)nc2nc(C)cc(C)n12
AC50 [1]: 31.6 µM [falling, partial curve]

CCc1ccc(-n2c(=O)c3c(C)c(C(=O)N(C)C)sc3n(Cc3ccccc3C#N)c2=O)cc1
AC50 [1]: 3.98 µM [rising, partial curve]

O=C(NCCCc1nc2ccccc2n1Cc1ccc(Cl)cc1Cl)c1ccco1
AC50 [1]: 39.8 µM [falling, single point]

COc1ccc(N2C(=O)CC(Sc3ncn[nH]3)C2=O)c(OC)c1 (stereo not drawn)
AC50 [1]: 7.94 µM [falling, partial curve]

CCc1ccccc1Nc1ccc(C(=O)O)cc1N
AC50 [1]: 15.8 µM [falling, partial curve]

O=S(=O)(c1cccc(F)c1)N1CCC(Oc2ccc(-n3cnnn3)cc2)CC1
AC50 [1]: 2.51 µM [falling, partial curve]

CCc1ccc(S(=O)(=O)c2c(C(=O)c3ccccc3)cnc3ccc(CC)cc23)cc1
AC50 [1]: 7.94 µM [falling, partial curve]

COc1ccccc1CN1CCC(CNC(=O)c2cnn(-c3ccc(Cl)cc3)c2C2CCN(C(=O)OC(C)(C)C)CC2)CC1
AC50 [1]: 15.8 µM [falling, single point]
